Measured values as given in patent publication US5500807A, “Selection method for pharmacologically active compounds” (The Regents of the University of California, priority 1992, dated 1996).

Test system: rGH mRNA in GC cells
Assay: cells
Conditions: Rattus norvegicus, 48 h, read-out: EC50 for blockade of rGH mRNA

CCCCc1oc2ccccc2c1C(=O)c1cc(I)c(OCCN(CC)CC)c(I)c1 [amiodarone, 2-butyl-3-[3,5-diiodo-4-(β-diethylaminoethoxy)-benzoyl]benzofuran]
EC50: 3.1 µM
